Literature values in US20140045943A1, “Hydroxamic Acid Derivatives, Preparation and Therapeutic Uses Thereof” (Naurex, Inc., priority 2008, published 2014).
Some entries share one result that the patent states for a list of compounds.

System: rat retinal cell line, E1A-NR.3
Conditions: reference (1); cited from earlier work

Row | Compound | delayed addition post 3-aminopropanal still protective
1 | ONCc1ccccc1 [NBHA, N-benzylhydroxylamine] | up to 3 hours
2 | ONC1CCCCC1 [cyclohexylhydroxylamine] | up to 3 hours
3 | CC(C)(C)NO [t-butylhydroxylamine] | up to 3 hours
